US10117857B2, “External medicine for diffuse plexiform neurofibroma” (OSAKA UNIVERSITY, priority 2015, dated 2018)
For at least one compound, name, drawing or mass did not settle the structure.

Assays:
[1] = test system: fibroblasts derived from diffuse plexiform neurofibromas of a patient suffering neurofibromatosis type 1; test: Cell death by trypan blue cell counting method; assay type: cell-based, human; conditions: sirolimus 0.1 nM, 1 nM, 10 nM or 100 nM; DMSO negative control; FIG. 7
[2] = test system: fibroblasts derived from diffuse plexiform neurofibromas of a patient suffering neurofibromatosis type 1; test: Cell proliferation by MTT assay method; assay type: cell-based, human; conditions: sirolimus 0.1 nM, 1 nM, 10 nM or 100 nM; DMSO negative control; FIG. 7
[3] = test system: neurofibromas in neurofibromatosis type 1; conditions: internal use; cited from earlier work

For `CO[C@H]1C[C@@H]2CC[C@@H](C)[C@@](O)(O2)C(=O)C(=O)N2CCCC[C@H]2C(=O)O[C@H]([C@H](C)C[C@@H]2CC[C@@H](O)[C@H](OC)C2)CC(=O)[C@H](C)/C=C(\C)[C@@H](O)[C@@H](OC)C(=O)[C@H](C)C[C@H](C)/C=C/C=C/C=C/1C` [sirolimus], the cell death [1] is listed as “induced”, the cell proliferation [2] is listed as “suppressed” and the therapeutic effects [3] is listed as “therapeutic effects have not been obtained”.
